What all share (assay): FRET or BRET; FRET efficiency by donor (CFP) de-quenching after photobleaching of the acceptor (YFP), under TIRF illumination (plasma membrane), in living transfected cells co-expressing the CFP- and YFP-labeled proteins
Background: Bioluminescence resonance energy transfer reports proximity on the nanometre scale.

The target in assay [1] is wild-type hERG channel labeled with CFP at the C-terminus (hERG 1158CFP) (human) (UniProt Q12809).
Assay [2] addresses hERG Δ2-135/Y542C channel C-terminally labeled with CFP (human) (UniProt Q12809).
For assay [3], the target named is wild-type hERG channel labeled with CFP at the C-terminus (hERG 1158CFP) (human) (UniProt Q12809). This is another data set of the same source.

Where two headings read alike, the source gives them in different places. No constants are given. Whether binding was seen depends on the method and setting. In cells and extracts the contact can be indirect. For part of these data: Where a sequence is shown, tags or fusion partners need not be part of it.

In the case of “recombinant hERG N-terminal eag domain fragment fused to eYFP (N1-135/YFP) (from UniProt Q12809 1-135) (domain or fragment)”, the binding result in assay [1] and in assay [2] was “no binding” throughout.

B1: TRH receptor C-terminally labeled with YFP (TRH-R 412YFP) (receptor, UniProt Q01717 1-412)
chain: MENETVSELNQTELPPQVAVALEYQVVTILLVVVICGLGIVGNIMVVLVVMRTKHMRTATNCYLVSLAVADLMVLVAAGLPNITDSIYGSWVYGYVGCLCITYLQYLGINASSCSITAFTIERYIAICHPIKAQFLCTFSRAKKIIIFVWAFTSIYCMLWFFLLDLNISTYKDAIVISCGYKISRNYYSPIYLMDFGVFYVMPMILATVLYGFIARILFLNPIPSDPKENSKTWKNDSTHQNKNMNLNTTNRCFNSTVSSRKQVTKMLAVVVILFALLWMPYRTLVVVNSFLSSPFQENWFLLFCRICIYLNSAINPVIYNLMSQKFRAAFRKLCNCKQKPTEKAANYSVALNYSVIKESDRFSTELDDITVTDTYVSTTKVSFDDTCLASEKNGPSSCTYGYSLTAKQEKI
On to B1, for which, in assay [3], the binding result is recorded as “no binding”.

These data come from article PMC3174182.
